Results as given in publication doi:10.1101/343046 (bioRxiv, 2018).

B1: KIF18A-N480-GFP-His6 (domain or fragment, human, UniProt Q8NI77 1-480, looked up)
chain: MSVTEEDLCHHMKVVVRVRPENTKEKAAGFHKVVHVVDKHILVFDPKQEEVSFFHGKKTTNQNVIKKQNKDLKFVFDAVFDETSTQSEVFEHTTKPILRSFLNGYNCTVLAYGATGAGKTHTMLGSADEPGVMYLTMLHLYKCMDEIKEEKICSTAVSYLEVYNEQIRDLLVNSGPLAVREDTQKGVVVHGLTLHQPKSSEEILHLLDNGNKNRTQHPTDMNATSSRSHAVFQIYLRQQDKTASINQNVRIAKMSLIDLAGSERASTSGAKGTRFVEGTNINRSLLALGNVINALADSKRKNQHIPYRNSKLTRLLKDSLGGNCQTIMIAAVSPSSVFYDDTYNTLKYANRAKDIKSSLKSNVLNVNNHITQYVKICNEQKAEILLLKEKLKAYEEQKAFTNENDQAKLMISNPQEKEIERFQEILNCLFQNREEIRQEYLKLEMLLKENELKSFYQQQCHKQIEMMCSEDKVEKATGKR
B2: His6-KIF15-N420 (domain or fragment, human, UniProt Q9NS87 1-420, looked up)
chain: MAPGCKTELRSVTNGQSNQPSNEGDAIKVFVRIRPPAERSGSADGEQNLCLSVLSSTSLRLHSNPEPKTFTFDHVADVDTTQESVFATVAKSIVESCMSGYNGTIFAYGQTGSGKTFTMMGPSESDNFSHNLRGVIPRSFEYLFSLIDREKEKAGAGKSFLCKCSFIEIYNEQIYDLLDSASAGLYLREHIKKGVFVVGAVEQVVTSAAEAYQVLSGGWRNRRVASTSMNRESSRSHAVFTITIESMEKSNEIVNIRTSLLNLVDLAGSERQKDTHAEGMRLKEAGNINRSLSCLGQVITALVDVGNGKQRHVCYRDSKLTFLLRDSLGGNAKTAIIANVHPGSRCFGETLSTLNFAQRAKLIKNKAVVNEDTQGNVSQLQAEVKRLKEQLAELASGQTPPESFLTRDKKKTNYMEYFQE
B3: KIF18A-FL-GFP-His6 (protein, UniProt Q8NI77 1-898)
chain: MSVTEEDLCHHMKVVVRVRPENTKEKAAGFHKVVHVVDKHILVFDPKQEEVSFFHGKKTTNQNVIKKQNKDLKFVFDAVFDETSTQSEVFEHTTKPILRSFLNGYNCTVLAYGATGAGKTHTMLGSADEPGVMYLTMLHLYKCMDEIKEEKICSTAVSYLEVYNEQIRDLLVNSGPLAVREDTQKGVVVHGLTLHQPKSSEEILHLLDNGNKNRTQHPTDMNATSSRSHAVFQIYLRQQDKTASINQNVRIAKMSLIDLAGSERASTSGAKGTRFVEGTNINRSLLALGNVINALADSKRKNQHIPYRNSKLTRLLKDSLGGNCQTIMIAAVSPSSVFYDDTYNTLKYANRAKDIKSSLKSNVLNVNNHITQYVKICNEQKAEILLLKEKLKAYEEQKAFTNENDQAKLMISNPQEKEIERFQEILNCLFQNREEIRQEYLKLEMLLKENELKSFYQQQCHKQIEMMCSEDKVEKATGKRDHRLAMLKTRRSYLEKRREEELKQFDENTNWLHRVEKEMGLLSQNGHIPKELKKDLHCHHLHLQNKDLKAQIRHMMDLACLQEQQHRQTEAVLNALLPTLRKQYCTLKEAGLSNAAFESDFKEIEHLVERKKVVVWADQTAEQPKQNDLPGISVLMTFPQLGPVQPIPCCSSSGGTNLVKIPTEKRTRRKLMPSPLKGQHTLKSPPSQSVQLNDSLSKELQPIVYTPEDCRKAFQNPSTVTLMKPSSFTTSFQAISSNINSDNCLKMLCEVAIPHNRRKECGQEDLDSTFTICEDIKSSKCKLPEQESLPNDNKDILQRLDPSSFSTKHSMPVPSMVPSYMAMTTAAKRKRKLTSSTSNSSLTADVNSGFAKRVRQDNSSEKHLQENKPTMEHKRNICKINPSMVRKFGRNISKGNLR
B4: His6-GFP-KIF15-FL (protein, UniProt Q9NS87 1-1388)
chain: MAPGCKTELRSVTNGQSNQPSNEGDAIKVFVRIRPPAERSGSADGEQNLCLSVLSSTSLRLHSNPEPKTFTFDHVADVDTTQESVFATVAKSIVESCMSGYNGTIFAYGQTGSGKTFTMMGPSESDNFSHNLRGVIPRSFEYLFSLIDREKEKAGAGKSFLCKCSFIEIYNEQIYDLLDSASAGLYLREHIKKGVFVVGAVEQVVTSAAEAYQVLSGGWRNRRVASTSMNRESSRSHAVFTITIESMEKSNEIVNIRTSLLNLVDLAGSERQKDTHAEGMRLKEAGNINRSLSCLGQVITALVDVGNGKQRHVCYRDSKLTFLLRDSLGGNAKTAIIANVHPGSRCFGETLSTLNFAQRAKLIKNKAVVNEDTQGNVSQLQAEVKRLKEQLAELASGQTPPESFLTRDKKKTNYMEYFQEAMLFFKKSEQEKKSLIEKVTQLEDLTLKKEKFIQSNKMIVKFREDQIIRLEKLHKESRGGFLPEEQDRLLSELRNEIQTLREQIEHHPRVAKYAMENHSLREENRRLRLLEPVKRAQEMDAQTIAKLEKAFSEISGMEKSDKNQQGFSPKAQKEPCLFANTEKLKAQLLQIQTELNNSKQEYEEFKELTRKRQLELESELQSLQKANLNLENLLEATKACKRQEVSQLNKIHAETLKIITTPTKAYQLHSRPVPKLSPEMGSFGSLYTQNSSILDNDILNEPVPPEMNEQAFEAISEELRTVQEQMSALQAKLDEEEHKNLKLQQHVDKLEHHSTQMQELFSSERIDWTKQQEELLSQLNVLEKQLQETQTKNDFLKSEVHDLRVVLHSADKELSSVKLEYSSFKTNQEKEFNKLSERHMHVQLQLDNLRLENEKLLESKACLQDSYDNLQEIMKFEIDQLSRNLQNFKKENETLKSDLNNLMELLEAEKERNNKLSLQFEEDKENSSKEILKVLEAVRQEKQKETAKCEQQMAKVQKLEESLLATEKVISSLEKSRDSDKKVVADLMNQIQELRTSVCEKTETIDTLKQELKDINCKYNSALVDREESRVLIKKQEVDILDLKETLRLRILSEDIERDMLCEDLAHATEQLNMLTEASKKHSGLLQSAQEELTKKEALIQELQHKLNQKKEEVEQKKNEYNFKMRQLEHVMDSAAEDPQSPKTPPHFQTHLAKLLETQEQEIEDGRASKTSLEHLVTKLNEDREVKNAEILRMKEQLREMENLRLESQQLIEKNWLLQGQLDDIKRQKENSDQNHPDNQQLKNEQEESIKERLAKSKIVEEMLKMKADLEEVQSALYNKEMECLRMTDEVERTQTLESKAFQEKEQLRSKLEEMYEERERTSQEMEMLRKQVECLAEENGKLVGHQNLHQKIQYVVRLKKENVRLAEETEKLRAENVFLKEKKRSES

These binders were tested against taxol stabilized microtubules (assay: co-sedimentation).
In the case of B1, the binding is reported as “binds”. For B2, the binding was “binds”. With B3 the binding was “binds”. B4 was tested, and the binding was “no binding (tested: 135 nM of kinesin)”.

No constants are given. Whether binding was seen depends on the method and setting. Binding calls can cover weak binding; strength is not graded here. Sequences can lack the tags named with a protein.
